Reference: article PMC6335621 (Chemical Science, 2018)

How the values were obtained:
HeLa = assay: In vitro cytotoxicity; assay type: cell-based, human; details: read-out: IC50 HeLa; MTT assay, 72 h incubation
MCF-7 = assay: In vitro cytotoxicity; assay type: cell-based, human; details: read-out: IC50 MCF-7; MTT assay, 72 h incubation

`N.N.[Cl][Pt][Cl]` [Cisplatin] was tested, and the IC50 (HeLa) was 3.8 ± 0.51 µM and the IC50 (MCF-7) was 13.2 ± 1.03 µM.
